Measurements taken from the supplement of paper PMC10849652.
The other results are listed elsewhere or left out.

Sequences of proteins named here, by UniProt entry; tags and fusion partners are left off. A change or cut given only in a name is not applied to a line headed by its entry.
UniProt P51159: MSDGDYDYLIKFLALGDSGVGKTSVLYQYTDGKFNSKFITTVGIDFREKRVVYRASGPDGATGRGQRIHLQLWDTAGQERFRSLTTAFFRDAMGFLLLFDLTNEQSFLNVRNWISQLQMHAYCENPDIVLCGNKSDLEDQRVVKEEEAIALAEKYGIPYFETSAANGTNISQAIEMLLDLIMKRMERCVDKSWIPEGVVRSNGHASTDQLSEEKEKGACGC
UniProt Q9H0U4: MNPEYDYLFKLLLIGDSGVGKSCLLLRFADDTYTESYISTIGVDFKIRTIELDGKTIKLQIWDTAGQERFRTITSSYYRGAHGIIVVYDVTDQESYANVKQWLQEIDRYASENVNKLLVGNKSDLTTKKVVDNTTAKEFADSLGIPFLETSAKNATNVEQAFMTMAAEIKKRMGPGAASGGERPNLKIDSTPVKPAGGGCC
UniProt P47224: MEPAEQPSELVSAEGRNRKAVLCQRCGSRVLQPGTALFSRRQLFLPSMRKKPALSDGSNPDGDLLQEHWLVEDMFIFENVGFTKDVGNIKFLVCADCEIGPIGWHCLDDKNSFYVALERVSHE
UniProt Q86X27: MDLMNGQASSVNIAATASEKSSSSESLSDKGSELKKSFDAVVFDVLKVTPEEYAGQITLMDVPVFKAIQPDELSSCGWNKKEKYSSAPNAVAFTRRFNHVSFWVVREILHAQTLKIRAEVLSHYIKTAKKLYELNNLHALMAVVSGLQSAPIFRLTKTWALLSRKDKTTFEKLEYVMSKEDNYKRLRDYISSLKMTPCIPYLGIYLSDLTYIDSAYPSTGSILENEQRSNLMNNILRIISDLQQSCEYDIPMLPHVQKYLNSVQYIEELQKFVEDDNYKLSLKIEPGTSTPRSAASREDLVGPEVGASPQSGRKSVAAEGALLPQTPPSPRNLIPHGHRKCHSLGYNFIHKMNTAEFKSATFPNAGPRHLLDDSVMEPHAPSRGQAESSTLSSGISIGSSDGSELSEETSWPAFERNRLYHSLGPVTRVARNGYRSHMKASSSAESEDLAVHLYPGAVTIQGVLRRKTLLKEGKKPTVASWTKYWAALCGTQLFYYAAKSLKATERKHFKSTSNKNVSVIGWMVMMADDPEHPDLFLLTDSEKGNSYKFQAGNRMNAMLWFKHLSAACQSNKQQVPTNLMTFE
UniProt P09417: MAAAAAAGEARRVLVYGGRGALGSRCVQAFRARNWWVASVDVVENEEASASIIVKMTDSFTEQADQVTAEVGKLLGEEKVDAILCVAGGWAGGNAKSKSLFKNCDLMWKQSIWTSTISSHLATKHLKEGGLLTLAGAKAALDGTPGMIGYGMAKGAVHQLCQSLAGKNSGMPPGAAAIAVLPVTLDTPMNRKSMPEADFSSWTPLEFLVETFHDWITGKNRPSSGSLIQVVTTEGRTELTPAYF
UniProt Q96QF0: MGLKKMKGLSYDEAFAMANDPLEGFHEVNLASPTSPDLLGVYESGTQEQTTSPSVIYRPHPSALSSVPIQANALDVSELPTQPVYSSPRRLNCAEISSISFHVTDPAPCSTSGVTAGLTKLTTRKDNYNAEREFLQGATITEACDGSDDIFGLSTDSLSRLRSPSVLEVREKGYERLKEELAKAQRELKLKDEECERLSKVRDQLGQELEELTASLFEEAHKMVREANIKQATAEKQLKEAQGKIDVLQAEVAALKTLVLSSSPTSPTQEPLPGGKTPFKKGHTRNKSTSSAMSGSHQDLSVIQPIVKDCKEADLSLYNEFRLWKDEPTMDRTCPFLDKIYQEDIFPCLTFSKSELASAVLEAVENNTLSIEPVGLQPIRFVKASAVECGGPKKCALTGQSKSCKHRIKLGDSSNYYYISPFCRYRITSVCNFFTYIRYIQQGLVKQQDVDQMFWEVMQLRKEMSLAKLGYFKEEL
UniProt Q9Y4B4: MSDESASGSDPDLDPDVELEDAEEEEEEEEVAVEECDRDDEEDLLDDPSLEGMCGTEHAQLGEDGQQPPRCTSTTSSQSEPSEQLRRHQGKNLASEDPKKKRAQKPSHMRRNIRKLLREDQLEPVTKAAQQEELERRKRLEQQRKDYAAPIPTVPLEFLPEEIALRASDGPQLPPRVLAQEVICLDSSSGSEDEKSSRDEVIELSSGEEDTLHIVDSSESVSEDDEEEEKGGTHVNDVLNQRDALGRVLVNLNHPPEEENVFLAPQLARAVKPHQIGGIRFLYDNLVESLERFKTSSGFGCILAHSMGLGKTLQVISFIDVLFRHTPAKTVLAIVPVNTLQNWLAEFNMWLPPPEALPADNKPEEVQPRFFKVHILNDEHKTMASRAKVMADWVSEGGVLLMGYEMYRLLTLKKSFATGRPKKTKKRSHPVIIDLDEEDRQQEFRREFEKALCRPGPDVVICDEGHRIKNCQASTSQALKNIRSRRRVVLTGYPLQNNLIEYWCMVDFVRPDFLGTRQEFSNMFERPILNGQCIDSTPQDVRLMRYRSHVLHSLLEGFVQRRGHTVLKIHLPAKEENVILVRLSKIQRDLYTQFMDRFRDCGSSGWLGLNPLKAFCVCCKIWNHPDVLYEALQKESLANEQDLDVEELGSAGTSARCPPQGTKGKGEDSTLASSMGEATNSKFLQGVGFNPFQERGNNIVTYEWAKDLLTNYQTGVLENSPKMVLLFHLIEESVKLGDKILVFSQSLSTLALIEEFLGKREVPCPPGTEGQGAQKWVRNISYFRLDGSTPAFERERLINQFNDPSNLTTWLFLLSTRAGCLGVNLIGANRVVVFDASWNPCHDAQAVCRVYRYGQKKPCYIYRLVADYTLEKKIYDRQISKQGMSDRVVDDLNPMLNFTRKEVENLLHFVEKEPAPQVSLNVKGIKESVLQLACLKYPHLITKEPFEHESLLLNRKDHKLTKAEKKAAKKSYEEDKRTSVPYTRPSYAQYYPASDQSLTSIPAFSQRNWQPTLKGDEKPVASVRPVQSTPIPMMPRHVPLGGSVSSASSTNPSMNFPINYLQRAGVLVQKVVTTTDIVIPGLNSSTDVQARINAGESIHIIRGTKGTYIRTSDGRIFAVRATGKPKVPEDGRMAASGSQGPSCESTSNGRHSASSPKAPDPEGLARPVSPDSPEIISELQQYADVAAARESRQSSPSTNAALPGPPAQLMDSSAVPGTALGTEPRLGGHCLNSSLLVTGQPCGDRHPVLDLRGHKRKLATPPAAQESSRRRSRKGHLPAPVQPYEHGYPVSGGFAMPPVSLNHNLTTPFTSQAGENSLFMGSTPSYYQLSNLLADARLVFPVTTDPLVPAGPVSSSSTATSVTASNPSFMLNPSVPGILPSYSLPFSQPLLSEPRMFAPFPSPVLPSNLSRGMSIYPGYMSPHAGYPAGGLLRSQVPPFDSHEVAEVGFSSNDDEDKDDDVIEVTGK
UniProt Q9H082: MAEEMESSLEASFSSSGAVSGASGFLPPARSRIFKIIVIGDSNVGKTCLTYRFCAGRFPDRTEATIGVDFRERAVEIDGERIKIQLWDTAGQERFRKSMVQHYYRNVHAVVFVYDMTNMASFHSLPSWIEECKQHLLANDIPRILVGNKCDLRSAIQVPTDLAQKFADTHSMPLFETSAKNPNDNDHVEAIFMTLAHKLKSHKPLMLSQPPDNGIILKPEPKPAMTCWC
UniProt P61106, whole entry, looked up: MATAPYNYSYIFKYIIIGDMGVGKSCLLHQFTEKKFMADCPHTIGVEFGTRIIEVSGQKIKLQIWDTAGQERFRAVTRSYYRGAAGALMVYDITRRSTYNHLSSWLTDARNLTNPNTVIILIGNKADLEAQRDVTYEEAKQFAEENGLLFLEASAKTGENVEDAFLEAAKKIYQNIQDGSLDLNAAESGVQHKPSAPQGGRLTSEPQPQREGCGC
UniProt Q86YS3: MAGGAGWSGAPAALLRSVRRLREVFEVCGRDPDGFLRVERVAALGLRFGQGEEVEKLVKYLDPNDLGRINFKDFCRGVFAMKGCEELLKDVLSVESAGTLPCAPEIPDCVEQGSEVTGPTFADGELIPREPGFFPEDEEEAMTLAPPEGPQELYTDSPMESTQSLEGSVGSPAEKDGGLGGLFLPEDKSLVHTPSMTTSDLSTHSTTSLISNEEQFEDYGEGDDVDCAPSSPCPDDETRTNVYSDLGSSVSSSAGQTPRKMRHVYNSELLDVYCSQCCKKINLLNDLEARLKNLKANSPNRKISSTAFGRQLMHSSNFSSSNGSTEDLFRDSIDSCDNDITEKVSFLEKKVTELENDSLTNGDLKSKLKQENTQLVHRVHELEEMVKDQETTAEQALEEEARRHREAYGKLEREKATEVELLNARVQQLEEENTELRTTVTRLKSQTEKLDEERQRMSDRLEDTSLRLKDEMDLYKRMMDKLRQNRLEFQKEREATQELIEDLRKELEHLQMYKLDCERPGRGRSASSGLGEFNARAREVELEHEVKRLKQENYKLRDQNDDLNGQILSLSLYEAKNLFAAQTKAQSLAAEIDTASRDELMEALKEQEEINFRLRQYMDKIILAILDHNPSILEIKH
UniProt P11234: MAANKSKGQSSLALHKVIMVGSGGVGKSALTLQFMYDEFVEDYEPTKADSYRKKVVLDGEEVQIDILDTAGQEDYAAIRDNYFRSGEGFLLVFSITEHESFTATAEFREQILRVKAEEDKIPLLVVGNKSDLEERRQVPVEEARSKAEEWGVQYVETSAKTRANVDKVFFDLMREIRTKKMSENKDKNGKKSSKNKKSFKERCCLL
UniProt O75771: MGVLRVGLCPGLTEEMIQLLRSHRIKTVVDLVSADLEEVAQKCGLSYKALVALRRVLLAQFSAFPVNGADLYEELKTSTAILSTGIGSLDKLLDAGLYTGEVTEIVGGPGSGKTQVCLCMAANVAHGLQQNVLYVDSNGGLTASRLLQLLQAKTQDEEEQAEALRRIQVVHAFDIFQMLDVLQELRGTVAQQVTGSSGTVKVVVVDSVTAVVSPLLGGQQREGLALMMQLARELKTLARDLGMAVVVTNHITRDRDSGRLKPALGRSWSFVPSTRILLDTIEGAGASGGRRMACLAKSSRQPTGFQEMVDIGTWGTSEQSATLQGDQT
UniProt Q96S21: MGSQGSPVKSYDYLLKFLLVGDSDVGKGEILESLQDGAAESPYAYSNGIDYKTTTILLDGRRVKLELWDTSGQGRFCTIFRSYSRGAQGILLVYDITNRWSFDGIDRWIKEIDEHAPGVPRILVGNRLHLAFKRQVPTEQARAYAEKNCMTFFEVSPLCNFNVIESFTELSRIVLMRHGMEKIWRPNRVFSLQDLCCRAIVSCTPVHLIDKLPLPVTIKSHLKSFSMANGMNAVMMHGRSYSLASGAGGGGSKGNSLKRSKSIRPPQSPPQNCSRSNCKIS
UniProt Q9Y3T6: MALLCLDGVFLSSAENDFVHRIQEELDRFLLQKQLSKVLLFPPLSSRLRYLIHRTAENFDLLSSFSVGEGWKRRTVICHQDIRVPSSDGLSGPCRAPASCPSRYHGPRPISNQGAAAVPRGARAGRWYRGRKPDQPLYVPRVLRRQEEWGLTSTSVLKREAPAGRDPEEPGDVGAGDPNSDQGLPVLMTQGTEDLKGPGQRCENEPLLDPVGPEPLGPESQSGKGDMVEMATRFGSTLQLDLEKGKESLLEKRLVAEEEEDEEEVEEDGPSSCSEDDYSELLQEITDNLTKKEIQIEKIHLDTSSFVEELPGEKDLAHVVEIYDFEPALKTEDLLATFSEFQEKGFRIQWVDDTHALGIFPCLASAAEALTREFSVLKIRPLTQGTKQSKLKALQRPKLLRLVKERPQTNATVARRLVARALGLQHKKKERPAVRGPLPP

Key:
Test in all cases: log2 fold change, soluble protein after heating vs DMSO (PISA); higher = thermal stabilisation; K562 lysate, 10 uM; active = over 0.2 and 3.5 SD of the protein, either way, in both replicates (recomputed)
[1] = compound: C#Cc1cccc(Nc2ncnc3cc(OCCOC)c(OCCOC)cc23)c1 [erlotinib]
Procedure, shortened: (§1)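 Values give the log-two fold change in thermal stability against solvent controls, from duplicates. Crude K562 extract at 1 mg/mL protein, made by dounce homogenisation in PBS pH 7.4 with 1 mM MgCl2, was treated with 10 μM compound for 30 min. After 3 min heating across 48°C-58°C, aliquots were pooled, adjusted to 0.5% NP-40 at 4°C and centrifuged at 21,000xg for 90 min. The supernatant was measured by TMTpro 16plex LC-MS/MS with channel sums equalised.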

[2] = compound: C/C(=N\NC(=O)C1=CC(=CC=C1)S(=O)(=O)N2CCOCC2)/C3=C(C=CC(=C3)Cl)O
Procedure, shortened: as §1

[3] = compound: C1=CC(=CC=C1C2=NC3=C(N2)C=C(C=C3)C(=O)N)OC4=CC=C(C=C4)Cl
Procedure, shortened: as §1

[4] = compound: C1=CC2=C(C=CC(=C2)/C=C\3/C(=O)NC(=NCC4=CC=CS4)S3)N=C1
Procedure, shortened: as §1

[5] = compound: C1=CC2=NC=CN=C2C=C1/C=C/3\C(=O)NC(=O)S3
Procedure, shortened: as §1

[6] = compound: C1=CC=C(C=C1)C2=NC(=C(N2)C3=CC=NC=C3)C4=CC(=C(C=C4)Cl)O
Procedure, shortened: as §1

[7] = compound: C1=CC=C2C(=C1)C3=NNC4=CC=CC(=C43)C2=O
Procedure, shortened: as §1

[8] = compound: C1CCN(C1)C(=O)NC2=CC=CC(=C2)NC3=NC=C(C(=N3)NCCC4=CN=CN4)Br
Procedure, shortened: as §1

[9] = compound: C1CN(CCC1(CC2=CC=C(C=C2)Cl)N)C3=NC=NC4=C3C=CN4
Procedure, shortened: as §1

[10] = compound: C1COCCN1CCN2C3=CC=CC=C3N=C2NC(=O)C4=CC(=CC=C4)[N+](=O)[O-] [IRAK-1-4 Inhibitor I]
Procedure, shortened: as §1

[11] = compound: C=CC(=O)N1CCC[C@@H](n2nc(-c3ccc(Oc4ccccc4)cc3)c3c(N)ncnc32)C1 [ibrutinib]
Procedure, shortened: as §1

[12] = compound: CC(=O)c1cnc2ccc(-c3cc(Cl)c(O)c(Cl)c3)nc2c1N[C@H]1CC[C@H](CN(C)C)CC1
Procedure, shortened: as §1

[13] = compound: CC(C)(C)Cn1c(N)nc2ccc(-c3[nH]c(C(C)(C)C)nc3-c3ccc(F)cc3)nc21 [ralimetinib]
Procedure, shortened: as §1

[14] = compound: CC(C)(O)CC(=O)NCCn1ccc2ncnc(Nc3ccc(Oc4cccc(C(F)(F)F)c4)c(Cl)c3)c21
Procedure, shortened: as §1

[15] = compound: CC(C)C1=C2N=C(C=C(N2N=C1)NCC3=CC=CC=C3)NCCCCCCN
Procedure, shortened: as §1

[16] = compound: CC1=C(C(CC(=O)N1)C2=CC=C(C=C2)C(F)(F)F)C(=O)NC3=C(C=C4C(=C3)C=NN4)F
Procedure, shortened: as §1

[17] = compound: CC1=C(C2=C(C=C1)C(=O)C3=CC=CC=C3N2CCCN)C
Procedure, shortened: as §1

[18] = compound: CC1=C(C=C(C=C1)NC(=O)C2=CC(=CC=C2)C(C)(C)C#N)NC3=CC4=C(C=C3)N=CN(C4=O)C
Procedure, shortened: as §1

[19] = compound: CC1=C(C=C(C=C1)NC(=O)C2=CC(=CC=C2)N(C)C)NC(=O)C3=CC=C(C=C3)O
Procedure, shortened: as §1

[20] = compound: CC1=CC=C(C=C1)SC2=C3C=C(SC3=CN=C2)C(=O)N
Procedure, shortened: as §1

Measured: log2 fold change

RAB27A (UniProt P51159)
inactive: [1] -0.045 | [2] 0.023 | [3] -0.014 | [4] 0.009 | [5] -0.009 | [6] -0.003 | [7] -0.025 | [8] -0.031 | [9] -0.015 | [10] -0.049 | [11] -0.011 | [12] -0.035 | [13] 0.074 | [14] 0.033 | [15] -0.054 | [16] -0.044 | [17] 0.047 | [18] -0.057 | [19] 0.006 | [20] -0.026

RAB1B (UniProt Q9H0U4)
inactive: [1] -0.009 | [2] -0.005 | [3] 0.011 | [4] 0.019 | [5] -0.002 | [6] 0.005 | [7] -0.008 | [8] 0.014 | [9] 0.003 | [10] 0.055 | [11] -0.011 | [12] -0.01 | [13] -0.014 | [14] -0.012 | [15] -0.006 | [16] 0.02 | [17] -0.014 | [18] -0.036 | [19] -0.011 | [20] -0.006

RABIF (UniProt P47224)
inactive: [1] 0.007 | [2] -0.015 | [3] 0.058 | [4] -0.001 | [5] -0.032 | [6] -0.018 | [7] -0.045 | [8] 0.018 | [9] -0.034 | [10] 0.001 | [11] 0.009 | [12] -0.003 | [13] -0.011 | [14] -0.024 | [15] -0.037 | [16] -0.038 | [17] -0.013 | [18] -0.024 | [19] 0 | [20] 0.013

RAP1B (UniProt F5GZG1)
inactive: [1] -0.028 | [2] 0.332 | [3] 0.101 | [4] -0.048 | [5] -0.206 | [7] -0.08 | [8] -0.081 | [9] 0.04 | [11] 0.01 | [12] -0.021 | [15] 0.061 | [16] 0.036 | [17] 0.019 | [18] -0.124 | [20] 0.117

RALGPS2 (UniProt Q86X27)
inactive: [1] 0.107 | [2] -0.041 | [3] 0.022 | [4] -0.083 | [5] -0.026 | [6] -0.055 | [7] -0.04 | [8] -0.031 | [9] 0.06 | [10] 0.003 | [11] 0.114 | [13] -0.059 | [14] -0.086 | [15] 0.018 | [16] -0.134 | [18] 0.041 | [19] -0.054

QDPR (UniProt P09417)
inactive: [1] 0.001 | [2] 0.022 | [3] 0.012 | [4] 0.141 | [5] -0.021 | [6] 0 | [7] 0.014 | [8] -0.014 | [9] 0.043 | [10] -0.013 | [11] 0.038 | [12] -0.008 | [13] -0.021 | [14] -0.007 | [15] 0 | [16] -0.003 | [17] -0.004 | [18] 0.005 | [19] 0.028 | [20] 0.018

RAB3IP (UniProt Q96QF0)
inactive: [1] 0.003 | [2] 0.03 | [3] -0.014 | [4] 0.133 | [5] 0.029 | [6] 0.011 | [7] 0.048 | [8] 0.082 | [9] 0.191 | [10] -0.001 | [11] 0.159 | [12] 0 | [13] 0.045 | [14] 0.01 | [15] -0.01 | [16] 0.04 | [17] 0.002 | [18] 0.013 | [19] 0.051 | [20] -0.034

RAD54L2 (UniProt Q9Y4B4)
inactive: [1] 0.186 | [2] -0.176 | [3] -0.103 | [4] -0.035 | [5] -0.135 | [7] 0.002 | [8] -0.046 | [9] 0.055 | [11] -0.005 | [12] 0.23 | [15] -0.073 | [16] 0.131 | [17] -0.051 | [18] 0.031 | [20] 0.094

RAB33B (UniProt Q9H082)
inactive: [1] -0.096 | [2] 0 | [3] 0.013 | [4] -0.042 | [5] -0.075 | [6] -0.043 | [7] -0.252 | [8] -0.01 | [9] 0.025 | [10] 0.041 | [11] 0.052 | [12] 0.055 | [13] 0.076 | [14] -0.02 | [15] 0.025 | [16] 0.098 | [17] -0.101 | [19] 0.044 | [20] 0.141

R3HDM1 isoform 3 (UniProt Q15032)
inactive: [1] -0.06 | [2] -0.061 | [3] 0.1 | [4] -0.017 | [5] 0.066 | [6] -0.003 | [7] -0.033 | [8] 0.01 | [9] 0.028 | [10] 0.026 | [11] -0.002 | [12] -0.134 | [13] 0 | [14] -0.067 | [15] -0.025 | [17] -0.002 | [18] -0.05 | [19] -0.014 | [20] 0.013

RAB14 (UniProt P61106)
inactive: [1] -0.025 | [2] 0.001 | [3] 0 | [4] 0.002 | [5] -0.045 | [6] -0.011 | [7] -0.005 | [8] -0.026 | [9] 0.012 | [10] 0.024 | [11] -0.018 | [12] 0 | [13] -0.008 | [14] 0.004 | [15] 0.014 | [16] 0.018 | [17] 0.02 | [18] 0.058 | [19] -0.019 | [20] -0.013

RAB11FIP4 (UniProt Q86YS3)
inactive: [1] 0.071 | [2] 0.052 | [3] -0.067 | [4] -0.048 | [5] -0.131 | [6] -0.042 | [7] -0.082 | [8] -0.006 | [9] 0.004 | [10] -0.071 | [11] -0.127 | [12] 0.098 | [13] -0.177 | [14] 0.042 | [15] -0.005 | [16] 0.035 | [17] 0.205 | [19] -0.29 | [20] -0.02

Pulled one by one from above (2):
RAB14 (UniProt P61106)
inactive: [1] -0.025 | [2] 0.001 | [3] 0 | [4] 0.002 | [5] -0.045 | [6] -0.011 | [7] -0.005 | [8] -0.026 | [9] 0.012 | [10] 0.024 | [11] -0.018 | [12] 0 | [13] -0.008 | [14] 0.004 | [15] 0.014 | [16] 0.018 | [17] 0.02 | [18] 0.058 | [19] -0.019 | [20] -0.013

R3HDM1 isoform 3 (UniProt Q15032)
inactive: [1] -0.06 | [2] -0.061 | [3] 0.1 | [4] -0.017 | [5] 0.066 | [6] -0.003 | [7] -0.033 | [8] 0.01 | [9] 0.028 | [10] 0.026 | [11] -0.002 | [12] -0.134 | [13] 0 | [14] -0.067 | [15] -0.025 | [17] -0.002 | [18] -0.05 | [19] -0.014 | [20] 0.013

Further entries follow.

RALB isoform 2 (UniProt P11234)
inactive: [1] -0.01 | [2] -0.094 | [3] 0.009 | [4] -0.01 | [5] -0.002 | [6] 0.016 | [7] -0.058 | [8] 0.009 | [9] -0.005 | [10] 0.046 | [11] -0.006 | [12] 0.088 | [13] -0.01 | [14] -0.021 | [15] 0.004 | [16] -0.028 | [17] 0 | [18] -0.019 | [19] -0.029 | [20] 0.029

RAD51D (UniProt O75771)
inactive: [1] -0.036 | [2] -0.144 | [3] -0.008 | [4] -0.041 | [5] 0.123 | [6] -0.025 | [7] -0.035 | [8] -0.033 | [9] 0.04 | [10] -0.024 | [11] 0 | [12] -0.09 | [13] 0.273 | [14] 0.107 | [15] 0.006 | [16] -0.022 | [17] -0.001 | [19] -0.171 | [20] -0.046

RAB40C (UniProt Q96S21)
inactive: [1] -0.015 | [2] -0.04 | [3] 0.035 | [4] -0.011 | [5] -0.042 | [6] -0.025 | [7] -0.037 | [8] -0.018 | [9] -0.027 | [10] 0.032 | [11] 0.021 | [12] 0.002 | [13] 0.098 | [14] -0.007 | [15] -0.099 | [16] -0.005 | [18] 0.042 | [19] -0.016 | [20] 0.04

R3HCC1 (UniProt Q9Y3T6)
inactive: [1] -0.015 | [2] -0.118 | [3] 0.055 | [4] 0.074 | [5] -0.086 | [6] 0.071 | [7] -0.008 | [8] 0.006 | [9] -0.016 | [10] -0.044 | [11] 0.02 | [12] 0.058 | [13] 0.016 | [14] -0.028 | [15] -0.045 | [16] 0.022 | [17] -0.061 | [18] 0.017 | [19] -0.001 | [20] 0.025

RAB28 (UniProt P51157)
inactive: [1] 0.088 | [2] -0.126 | [3] -0.042 | [4] -0.112 | [5] 0.045 | [6] 0.071 | [7] 0.13 | [8] -0.06 | [9] 0.103 | [10] 0 | [11] -0.053 | [12] -0.018 | [13] 0.033 | [14] -0.046 | [15] -0.075 | [17] 0.081 | [18] -0.093 | [19] -0.013 | [20] -0.063
